Consider 4 molecules from paper PMC10240701.

Protein sequences, listed by entry. Tags and fused reporters are not part of them.
UniProt P68400: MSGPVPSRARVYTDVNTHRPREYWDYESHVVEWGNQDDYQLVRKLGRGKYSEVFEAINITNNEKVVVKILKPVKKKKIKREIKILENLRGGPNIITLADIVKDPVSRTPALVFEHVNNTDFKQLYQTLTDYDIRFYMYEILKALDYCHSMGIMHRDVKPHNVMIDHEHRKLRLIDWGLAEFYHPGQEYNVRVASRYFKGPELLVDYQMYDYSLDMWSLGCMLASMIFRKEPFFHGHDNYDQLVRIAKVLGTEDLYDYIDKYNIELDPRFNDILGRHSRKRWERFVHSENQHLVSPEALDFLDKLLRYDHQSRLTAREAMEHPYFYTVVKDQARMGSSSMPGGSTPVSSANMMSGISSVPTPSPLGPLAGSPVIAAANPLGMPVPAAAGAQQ
UniProt Q96SB4: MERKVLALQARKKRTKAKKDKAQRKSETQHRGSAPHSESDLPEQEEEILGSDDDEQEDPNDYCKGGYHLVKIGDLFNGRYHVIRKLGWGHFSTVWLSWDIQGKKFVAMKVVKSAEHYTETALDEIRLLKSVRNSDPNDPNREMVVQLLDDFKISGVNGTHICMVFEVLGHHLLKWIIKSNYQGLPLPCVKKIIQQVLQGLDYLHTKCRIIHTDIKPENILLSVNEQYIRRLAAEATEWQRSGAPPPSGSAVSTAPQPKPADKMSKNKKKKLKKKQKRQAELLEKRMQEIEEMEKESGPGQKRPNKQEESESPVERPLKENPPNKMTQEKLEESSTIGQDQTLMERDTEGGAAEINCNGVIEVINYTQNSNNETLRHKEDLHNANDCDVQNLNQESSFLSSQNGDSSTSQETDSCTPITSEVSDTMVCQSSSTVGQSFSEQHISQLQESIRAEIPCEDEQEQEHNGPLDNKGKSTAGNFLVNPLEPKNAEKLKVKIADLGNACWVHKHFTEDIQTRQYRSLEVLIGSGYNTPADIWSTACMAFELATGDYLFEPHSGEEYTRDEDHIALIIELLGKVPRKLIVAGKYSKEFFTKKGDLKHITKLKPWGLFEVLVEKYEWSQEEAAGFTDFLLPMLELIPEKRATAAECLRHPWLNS
UniProt P06241: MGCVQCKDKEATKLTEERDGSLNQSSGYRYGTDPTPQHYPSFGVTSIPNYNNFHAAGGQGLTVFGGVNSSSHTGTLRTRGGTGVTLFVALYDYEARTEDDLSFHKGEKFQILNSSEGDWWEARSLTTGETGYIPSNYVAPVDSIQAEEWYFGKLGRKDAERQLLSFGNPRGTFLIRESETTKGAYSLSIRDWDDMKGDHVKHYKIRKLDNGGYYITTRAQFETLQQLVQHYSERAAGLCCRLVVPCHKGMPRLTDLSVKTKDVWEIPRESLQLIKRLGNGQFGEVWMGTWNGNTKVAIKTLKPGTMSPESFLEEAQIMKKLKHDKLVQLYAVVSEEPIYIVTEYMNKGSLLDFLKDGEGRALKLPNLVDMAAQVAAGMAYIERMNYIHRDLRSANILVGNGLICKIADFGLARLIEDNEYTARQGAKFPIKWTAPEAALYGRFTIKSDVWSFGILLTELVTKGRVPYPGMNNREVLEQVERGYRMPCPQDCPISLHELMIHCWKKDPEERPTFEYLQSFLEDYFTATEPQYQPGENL

No constants are given. Whether binding was seen depends on the method and setting. In cells and extracts the contact can be indirect. These calls come from enrichment with a bait or labelling near it, and not all partners need be listed. Sequences can lack the tags named with a protein.

The test concerns the target T1, Flag-ASPA (aspartoacylase), expressed in PC-3 cells (human) (UniProt P45381).
T1 sequence: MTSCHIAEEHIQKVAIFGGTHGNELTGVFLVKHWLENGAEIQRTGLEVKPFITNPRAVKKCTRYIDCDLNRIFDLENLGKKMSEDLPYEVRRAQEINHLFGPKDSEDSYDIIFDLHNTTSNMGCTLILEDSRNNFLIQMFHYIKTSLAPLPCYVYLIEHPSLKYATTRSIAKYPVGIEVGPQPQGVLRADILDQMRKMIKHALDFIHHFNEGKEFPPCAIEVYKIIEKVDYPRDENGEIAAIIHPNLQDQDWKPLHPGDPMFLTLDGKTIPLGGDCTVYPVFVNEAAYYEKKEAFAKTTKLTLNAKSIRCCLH
Put plainly: affinity purification with mass spectrometry; Flag or Flag-ASPA transfected into PC-3 cells for 48 h; lysis in IP buffer, Flag-ASPA immunoprecipitated, in-gel trypsin digestion, Q-Exactive.

As to “CSNK2A1 (casein kinase 2 alpha 1), endogenous in PC-3 cells (from UniProt P68400 1-391) (enzyme)”, the binding entry is “binds”.

Take “SRPK1 (serine/arginine-rich protein-specific kinase 1), endogenous in PC-3 cells (from UniProt Q96SB4 1-655) (enzyme)”: the binding result is given as “binds”.

For the molecule “FYN (tyrosine-protein kinase Fyn), endogenous in PC-3 cells (from UniProt P06241 1-537) (enzyme)”, the binding result is “binds”.

B1: GAK (cyclin G associated kinase), endogenous in PC-3 cells (enzyme, UniProt O14976 1-1311)
chain: MSLLQSALDFLAGPGSLGGASGRDQSDFVGQTVELGELRLRVRRVLAEGGFAFVYEAQDVGSGREYALKRLLSNEEEKNRAIIQEVCFMKKLSGHPNIVQFCSAASIGKEESDTGQAEFLLLTELCKGQLVEFLKKMESRGPLSCDTVLKIFYQTCRAVQHMHRQKPPIIHRDLKVENLLLSNQGTIKLCDFGSATTISHYPDYSWSAQRRALVEEEITRNTTPMYRTPEIIDLYSNFPIGEKQDIWALGCILYLLCFRQHPFEDGAKLRIVNGKYSIPPHDTQYTVFHSLIRAMLQVNPEERLSIAEVVHQLQEIAAARNVNPKSPITELLEQNGGYGSATLSRGPPPPVGPAGSGYSGGLALAEYDQPYGGFLDILRGGTERLFTNLKDTSSKVIQSVANYAKGDLDISYITSRIAVMSFPAEGVESALKNNIEDVRLFLDSKHPGHYAVYNLSPRTYRPSRFHNRVSECGWAARRAPHLHTLYNICRNMHAWLRQDHKNVCVVHCMDGRAASAVAVCSFLCFCRLFSTAEAAVYMFSMKRCPPGIWPSHKRYIEYMCDMVAEEPITPHSKPILVRAVVMTPVPLFSKQRSGCRPFCEVYVGDERVASTSQEYDKMRDFKIEDGKAVIPLGVTVQGDVLIVIYHARSTLGGRLQAKMASMKMFQIQFHTGFVPRNATTVKFAKYDLDACDIQEKYPDLFQVNLEVEVEPRDRPSREAPPWENSSMRGLNPKILFSSREEQQDILSKFGKPELPRQPGSTAQYDAGAGSPEAEPTDSDSPPSSSADASRFLHTLDWQEEKEAETGAENASSKESESALMEDRDESEVSDEGGSPISSEGQEPRADPEPPGLAAGLVQQDLVFEVETPAVLPEPVPQEDGVDLLGLHSEVGAGPAVPPQACKAPSSNTDLLSCLLGPPEAASQGPPEDLLSEDPLLLASPAPPLSVQSTPRGGPPAAADPFGPLLPSSGNNSQPCSNPDLFGEFLNSDSVTVPPSFPSAHSAPPPSCSADFLHLGDLPGEPSKMTASSSNPDLLGGWAAWTETAASAVAPTPATEGPLFSPGGQPAPCGSQASWTKSQNPDPFADLGDLSSGLQGSPAGFPPGGFIPKTATTPKGSSSWQTSRPPAQGASWPPQAKPPPKACTQPRPNYASNFSVIGAREERGVRAPSFAQKPKVSENDFEDLLSNQGFSSRSDKKGPKTIAEMRKQDLAKDTDPLKLKLLDWIEGKERNIRALLSTLHTVLWDGESRWTPVGMADLVAPEQVKKHYRRAVLAVHPDKAAGQPYEQHAKMIFMELNDAWSEFENQGSRPLF
Consider B1, for which the binding result is “binds”.
